According to PMC4263359, “Vesicular Stomatitis Virus Polymerase's Strong Affinity to Its Template Suggests Exotic Transcription Models” (PLoS Computational Biology, 2014):
These are yes or no findings as the source states them, for the method shown. In cells and extracts the contact can be indirect. Some entries that bind do so weakly or less than the wild type.

Protein sequences, listed by entry. Tags and fused reporters are not part of them.
UniProt P03521: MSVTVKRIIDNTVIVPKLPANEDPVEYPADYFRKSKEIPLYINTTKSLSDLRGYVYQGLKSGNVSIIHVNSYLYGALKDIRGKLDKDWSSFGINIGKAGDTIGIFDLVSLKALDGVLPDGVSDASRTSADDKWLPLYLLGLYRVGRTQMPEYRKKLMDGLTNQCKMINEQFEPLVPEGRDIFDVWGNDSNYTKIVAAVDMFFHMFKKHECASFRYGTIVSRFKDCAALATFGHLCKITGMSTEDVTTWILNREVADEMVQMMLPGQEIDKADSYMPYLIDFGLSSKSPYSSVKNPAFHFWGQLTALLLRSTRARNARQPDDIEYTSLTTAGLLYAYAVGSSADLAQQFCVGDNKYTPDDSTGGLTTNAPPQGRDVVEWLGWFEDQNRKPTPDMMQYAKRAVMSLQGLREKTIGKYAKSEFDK
UniProt P03520: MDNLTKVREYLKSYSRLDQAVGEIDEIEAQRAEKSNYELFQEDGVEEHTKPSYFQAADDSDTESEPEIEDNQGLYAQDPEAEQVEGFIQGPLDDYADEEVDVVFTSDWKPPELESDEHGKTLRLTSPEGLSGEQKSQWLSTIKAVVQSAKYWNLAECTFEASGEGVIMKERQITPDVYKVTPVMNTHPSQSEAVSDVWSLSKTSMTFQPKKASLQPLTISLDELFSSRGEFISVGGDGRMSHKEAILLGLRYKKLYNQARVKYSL

Biological target: VSV nucleoprotein N of the genome template (N-RNA) (vesicular stomatitis virus (endogenous in virions)) (UniProt P03521)
Test: co-sedimentation

In the case of “VSV phosphoprotein P (from UniProt P03520 1-265)”, the binding is reported as “binds”.
